In patent US6593306B1, “Methods for modulation and inhibition of telomerase” (Board of Regents, The University of Texas Systems, priority 1995, dated 2003):
At least one structure is not confirmed: it was looked up by name or label, or the drawing left a doubt.

The chains behind the UniProt entries cited, without tags or fusion partners. Where a name states a change or a piece, a line headed by the entry shows the natural chain unless it says otherwise.
UniProt O14746: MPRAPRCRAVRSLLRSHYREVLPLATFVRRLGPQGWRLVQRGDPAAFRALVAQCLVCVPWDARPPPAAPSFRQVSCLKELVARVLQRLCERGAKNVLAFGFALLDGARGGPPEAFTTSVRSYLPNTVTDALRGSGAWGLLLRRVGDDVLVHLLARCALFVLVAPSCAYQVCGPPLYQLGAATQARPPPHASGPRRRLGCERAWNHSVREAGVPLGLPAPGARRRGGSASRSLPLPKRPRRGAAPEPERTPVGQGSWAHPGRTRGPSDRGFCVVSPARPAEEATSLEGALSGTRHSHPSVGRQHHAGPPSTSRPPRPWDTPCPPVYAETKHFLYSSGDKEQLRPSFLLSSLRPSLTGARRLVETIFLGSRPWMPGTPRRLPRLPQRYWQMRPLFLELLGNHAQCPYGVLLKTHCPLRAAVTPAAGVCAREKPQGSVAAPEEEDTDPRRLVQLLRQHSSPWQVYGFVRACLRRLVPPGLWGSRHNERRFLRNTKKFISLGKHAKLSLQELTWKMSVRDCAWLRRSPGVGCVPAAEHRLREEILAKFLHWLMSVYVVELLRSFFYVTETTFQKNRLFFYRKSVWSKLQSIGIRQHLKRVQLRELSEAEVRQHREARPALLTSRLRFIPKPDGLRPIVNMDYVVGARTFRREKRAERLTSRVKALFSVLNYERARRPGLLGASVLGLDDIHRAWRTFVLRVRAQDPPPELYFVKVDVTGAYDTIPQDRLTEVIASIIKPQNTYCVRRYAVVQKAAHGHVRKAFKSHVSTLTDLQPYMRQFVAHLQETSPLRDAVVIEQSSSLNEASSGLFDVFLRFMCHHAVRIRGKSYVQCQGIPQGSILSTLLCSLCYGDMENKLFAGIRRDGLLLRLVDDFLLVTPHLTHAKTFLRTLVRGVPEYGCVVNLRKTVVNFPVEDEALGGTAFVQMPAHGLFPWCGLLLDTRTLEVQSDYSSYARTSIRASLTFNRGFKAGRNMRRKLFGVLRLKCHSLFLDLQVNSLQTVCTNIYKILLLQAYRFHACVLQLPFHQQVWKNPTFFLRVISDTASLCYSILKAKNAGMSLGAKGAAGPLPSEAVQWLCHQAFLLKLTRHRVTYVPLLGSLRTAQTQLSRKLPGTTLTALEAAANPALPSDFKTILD

Columns and labels:
[1] = biological target: T1, human 293 cell telomerase (Homo sapiens, UniProt O14746); assay: Conventional telomerase assay (32P-dGTP as radiolabel substrate); type: biochemical; conditions: up to 2 mM
T1 construct: with 20 μl of S100 enzyme extract; endogenous in cells; host or cells: 293 cells (transformed human embryonic kidney), S100 extract
Experimental: Telomerase was prepared from transformed human embryonic kidney 293 cell line. Human embryonic kidney 293 cells were grown in Joklik's modified MEM niedium (Sigma, St Louis, Mo.) supplemented with 5% fetal bovine serum at 37° C. in a humidified atmosphere with 5% CO2. The cells were subcultured at 1-2×10^5 cells/ml twice a week. When the cells grew to approximately 1×10^6 cells/ml, the cells (˜2×10^9 cells) were centrifuged and transferred into polypropylene centrifuge (50 ml) tubes and kept on ice. The cells were then centrifuged in a (Beckman GS-6R) centrifuge at 1200 RPM for 10 minutes at 4° C., and resuspended in PBS. The washed cells were resuspended in 15 ml Hypobuffer Mix (10 mM HEPES, pH 8.0, 3 mM KCl, 1 mM MgCl2, 1 mM dithiothreitol, 1 μM leupeptin, 0.1 mM PMSF, 10 μM pepstatin, 0.83 μg/ml chymostatin, 0.83 μg/ml antipain, and 43.2 units/ml RNase Guard) and centrifuged. […]
The assay is based on the ability of the telomerase enzyme in the S100 fractions to recognize an 18-base DNA primer with the DNA sequence (TTAGGG)3. […] By reading from its complementary internal RNA template, telomerase adds a repeated set of 5′-TTAGGG-3′ to the original 18-base primer. […] Comparisons of the total volumes under the corresponding peaks are used to quantitate the total amount of [α-^32P] incorporated in the primer extension reaction. […]

human cancer telomerase = biological target: T2, human cancer telomerase (Homo sapiens, UniProt O14746); assay: Nucleoside triphosphate as telomerase substrate, dGTP replaced in modified reaction; type: biochemical; conditions: modified assay; 1 mM dTTP, 3.12 μM [α-32P]dATP
T2 construct: endogenous in cells; host or cells: human cancer cells

Nc1nc2c(ncn2[C@H]2C[C@H](O)[C@@H](COP(=O)(O)OP(=O)(O)CP(=O)(O)O)O2)c(=O)[nH]1 [NA014, 2′-Deoxyguanosine-5′-β,γ-Methylene Triphosphate]
Inhibition of 293 Telomerase, Conventional Assay *dGTP [1]: concentration-dependent inhibition
incorporation into telomeric ladders, replacing dGTP (human cancer telomerase): incorporated into telomeric ladders
